The list shows a part of the results. The source does not settle which construct or isoform was used.
biological target: T1, ELF2 (UniProt Q15723); experiment: DAPPL (digital affinity profiling via proximity ligation, sequencing); conditions: 10 mM Tris-HCl pH 7.5, 50 mM NaCl, 1 mM DTT, 4% glycerol, room temperature, 30 min; GST-TFs on glutathione beads, 16-mer random dsDNA library, 0.1% …; high values mean tight binding; double strand, one strand shown; scale: fold enrichment (6-mer frequency, TF over GST control)
T1 sequence: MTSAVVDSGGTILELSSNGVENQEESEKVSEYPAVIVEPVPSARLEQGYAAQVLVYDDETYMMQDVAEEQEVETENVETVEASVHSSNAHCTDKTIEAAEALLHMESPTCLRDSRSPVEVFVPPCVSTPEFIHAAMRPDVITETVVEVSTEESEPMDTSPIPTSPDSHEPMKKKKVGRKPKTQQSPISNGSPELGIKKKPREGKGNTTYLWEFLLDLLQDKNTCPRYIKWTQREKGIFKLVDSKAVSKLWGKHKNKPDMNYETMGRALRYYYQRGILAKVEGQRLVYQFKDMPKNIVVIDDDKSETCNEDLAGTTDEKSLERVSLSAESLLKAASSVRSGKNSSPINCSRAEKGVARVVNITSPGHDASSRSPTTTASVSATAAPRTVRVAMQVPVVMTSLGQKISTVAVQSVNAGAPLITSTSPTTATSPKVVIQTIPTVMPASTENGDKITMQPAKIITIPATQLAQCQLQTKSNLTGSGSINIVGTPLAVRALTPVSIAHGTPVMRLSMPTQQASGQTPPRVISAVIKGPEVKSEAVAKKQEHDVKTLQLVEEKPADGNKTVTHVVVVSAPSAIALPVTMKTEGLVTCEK

Sequence	binding signal
GCTCCT	1.34
TCCGGA	3.9
CTAAAA	1.12
GAAAGA	1.03
CGATTA	1.11
TCCGAC	1.45
CTTCTA	1.37
TGTCTC	1.17
CTTATC	1.13
CTTGCC	1.22
TACTAG	0.957
GCACTT	2.1
AATGCA	1.25
GATGAA	1.15
GCTTAT	1.22
TACACC	1.16
ACTCCC	1.33
TCCCGC	1.42
GCCCCT	1.24
ACCTAA	1.1

Two entries from above in a different format:
Sequence | binding signal
CGATTA | 1.11
TACACC | 1.16

More results.

Sequence	binding signal
AAGGTA	1.08
TTCTCA	1.2
CTGCTA	1.34
CTCCGG	1.69
ATATAC	1.23
TCTGGG	1.03
TCTCGA	1.27
ATGGTT	1.28
TATGCG	1.36
ATCATA	1.05
TACTTT	1.34
TGCTAT	1.37
ACTAAG	1.03
CTAATG	1.21
GATGGC	1.29
CTGCCG	1.41
TAGTCT	1.02
CGAAAG	1.05
GAATCT	1.07
TTGATG	1.49

Source: paper PMC7862700
